From publication PMC10377357 (2023)

Protein sequences, listed by entry. Tags and fused reporters are not part of them. Lines headed by an entry give the natural chain unless they say otherwise; changes in a name come on top.
UniProt P25443: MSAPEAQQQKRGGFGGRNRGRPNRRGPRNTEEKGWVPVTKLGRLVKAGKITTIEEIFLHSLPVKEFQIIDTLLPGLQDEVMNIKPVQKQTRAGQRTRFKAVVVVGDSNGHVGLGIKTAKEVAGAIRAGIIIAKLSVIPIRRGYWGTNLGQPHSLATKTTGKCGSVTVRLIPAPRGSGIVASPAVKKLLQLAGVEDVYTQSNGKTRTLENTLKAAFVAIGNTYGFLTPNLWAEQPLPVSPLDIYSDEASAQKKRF

Assays:
[1] = target: Rps2 missing the N-terminal ten amino acids, G4BD fusion (S. cerevisiae) (UniProt P25443); assay: two-hybrid; Yeast strain PJ69-4A; Rps2 variants C-terminally fused to the Gal4 DNA-binding domain, full-length Tsr4 C-terminally fused to the Gal4 activation domain, CEN low-copy plasmids; growth on -HLT (weak) and -ALT (strong), 3 days at 30 °C
[2] = target: Rps2 missing the N-terminal five amino acids, G4BD fusion (S. cerevisiae) (UniProt P25443); assay: as above

B1: full-length Tsr4-G4AD (protein, UniProt P25040 1-408)
chain: MSKIEELPPSDTDDHSYSSKPGDVFLAFVDAPVKETDDILVEDSFIGGEPKWLHPDSEPPAELLKCGACKSADNMKLLLQAFSPLDDEQMSAIQQRLGINNMSYINPQDDRVLYVFLCTECQRKGNSVRCIRGVKKNKNVDSLSEKMASTSLEKDFQINPFDLSNNSDSKCNAFSSNPFGGANANPFGADSINSNISQSKDEGKKKESATVSAKTARKLHDLQKDKEYDGNKCFKSCLLYVEEETFKNKKPAHLQLPKNLKIDKEALDLTGDEDLEKDPIKLDPRTEKLSKFLDDDTFQKFQEVVGYNPLQVLRYDLGGKPLLYAETKVDILSTVPRPGYNPSSQRIFEMQLMPKMIFDLEEVVSVDNGMEWGTILVFTDVENYMPEFDEHGVGYVEECVKVQWESRT
With B1 the binding [1] was “binds” and the binding [2] was “binds”.

No constants are given. Whether binding was seen depends on the method and setting. Binding calls can cover weak binding; strength is not graded here.
